# In patent US5977174A, “Cholinergic compositions and uses thereof” (Neuromedica, Inc., priority 1997, dated 1999):
# At least one structure is not confirmed: it was looked up by name or label, or the drawing left a doubt.
# Key:
# [1] = system: locomotor activity of mice; assay: Locomotor activity study (dose-response of DHA-choline-induced locomotor depression); format: in vivo, male Swiss-Webster mice (Hsd:ND4); conditions: for difference against vehicle control, total distance/10 min: 0-30 min
# Protocol: A dose-response study of DHA-choline-induced locomotor depression was conducted using 40 Digiscan locomotor activity testing chambers (40.5×40.5×30.5 cm) housed in sets of two, within sound attenuating chambers. A panel of infrared beams (16 beams) and corresponding photo detectors were located in the horizontal direction along the sides of each activity chamber. A 7.5W incandescent light above each chamber provided dim illumination. Fans provided an 80-dB ambient noise level within the chamber. Separate groups of 8 non-habituated male Swiss-Webster mice (Hsd:ND4, aged 2-3 mo.) were injected via the intraperitoneal route (i.p.) with either vehicle or DHA-choline (0.5, 2.5, 5, 10, 20 or 40 mg/kg), 20 minutes prior to locomotor activity testing. In all studies, the total distance (cm traversed in the horizontal plane) was measured for 2 hours within 10 min periods.
# The figures show the dose response data for the locomotor activity (Stewart et al., Psychopharmacol 60:281, 1979) of mice injected with different doses of the compound. The figures show average distance per 10 min as a function of time (FIG. 1) and dose (FIG. 2) 20 minutes following DHA-choline pretreatment. The period 0-30 min was selected for analysis of dose-response data because this is the time period in which DHA-choline produced maximal effects. The mean average distance per 10 min for this 30 min period were fit to a linear function of log10 dose of the descending portion of the dose-effect curve (0.5 to 40 mg/kg dose range).
# rats = assay: Neurological deficits after middle cerebral artery occlusion (test scores 0 to 5); format: in vivo, rat; conditions: 50 mg/kg i.p. 30 min prior to occlusion, additional doses 24 and 48 hours later
# [2] = system: phosphatidylcholine-specific phospholipase C; conditions: Nishio et al. 1993; cited from earlier work
# cortical cells = assay: Rescue of cortical cells / location of infarcts after MCA occlusion; format: in vivo, rat
smiles,measurement,setting,value
"CC/C=C\C/C=C\C/C=C\C/C=C\C/C=C\C/C=C\CCC(=O)OCC[N+](C)(C)C [DHA-choline, Docosahexaenoyl Choline Iodide]",overall effect on total distance/10 min (one-way analysis of variance),"[1]; 0-30 time period, 0.5-40 mg/kg i.p., F(6,49)=10.5, p<0.001",significant overall effect
same,"difference against vehicle control, total distance/10 min",[1]; 2.5 mg/kg i.p.,significant difference
same,"difference against vehicle control, total distance/10 min",[1]; 10 mg/kg i.p.,significant difference
same,"difference against vehicle control, total distance/10 min",[1]; 20 mg/kg i.p.,significant difference
same,"difference against vehicle control, total distance/10 min",[1]; 40 mg/kg i.p.,significant difference
same,inhibition of locomotor activity,"[1]; 0.5-40 mg/kg i.p., mice",inhibits locomotor activity in a dose-dependent manner
same,neurological deficits at the end of three days,rats,did not show paw extension disability and walked normally in a straight line
same,effect on phosphatidylcholine-specific phospholipase C activity,[2],stimulated phosphatidylcholine-specific phospholipase C activity
same,rescue of the cortical cells,cortical cells; administered prior to or at three hours after onset of occlusion,complete rescue of the cortical cells
same,incidence of cortical infarcts,"cortical cells; all animals treated, prior to or three hours after onset of occlusion",only subcortical infarcts with no incidence of cortical infarcts
